The list shows a part of the results. Further columns of the screen follow, without active or inactive calls. Compounds called inactive in the main read-out are mostly missing here. Potencies come from curve fits of mixed quality, noted in brackets.
Test: qHTS Assay for Lipid Storage Modulators in Drosophila S3 Cells;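 as to cell number change: cells counted by Cell Tracker Red CMTPX staining in the red channel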
Conditions: BODIPY lipid droplet fluorescence, 18-24 h; for cell number change: measured here: cell count max response, cells fed with added oleic acid
Outline: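 Laser-scanning cytometry quantifies lipid droplet accumulation (500–530 nm total intensity; droplet/cell object ratio) in oleic acid-fed (400 uM added) Drosophila S3 cells treated with a concentration series. 20 uM Triacsin C defined 100% inhibition.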

[1] = measured here: lipid fluorescence (Fed channel) AC50, cells fed with added oleic acid
[2] = measured here: cell number channel AC50, cells fed with added oleic acid

SMILES | cell number change [%] | AC50 [1] | AC50 [2]
CCOC1(OCC)N=C(N)C2(C#N)C(c3cccc(OC)c3OC)C12C#N (centres undefined) | -25.3 | 29.1 µM [falling, single point] | –
COCCN1C(=O)C(=O)/C(=C(/O)c2ccc(OC(C)C)cc2)C1c1cccnc1 (centres undefined) | -95.8 | 20.6 µM [falling, partial curve] | 29.1 µM [falling, partial curve]
O=c1c2c3nc4ccccc4nc3n(-c3ccc4c(c3)OCCO4)c2ncn1CC1CCCO1 (centres undefined) | 0.628 | – | –
CC(=O)N1N=C2/C(=C/c3ccccc3)CCCC2C1c1ccccc1 (centres undefined) | 6.06 | – | 6.51 µM [rising, single point]
CC1Cc2nc(SCC(=O)NCc3ccco3)n(Cc3ccccc3)c(=O)c2S1 (centres undefined) | 3.09 | 18.4 µM [rising, single point] | –
CN1CCC(=NNC(=O)CN(c2ccccc2)S(=O)(=O)c2ccccc2)CC1 | 12 | – | 6.51 µM [rising, single point]
COCCCNC(=O)CC(NS(=O)(=O)c1ccc(C)cc1)c1ccc(OC)cc1 (centres undefined) | 1.71 | 20.6 µM [falling, partial curve] | –
Cc1ccc(C(C(=O)NC(C)(C)C)N(CC2CCCO2)C(=O)c2csnn2)cc1 (centres undefined) | -9.21 | – | –
Clc1ccc(C2=Nn3c(nnc3-c3cc(-c4ccccc4)n[nH]3)SC2)cc1 | -148 | 29.1 µM [falling, single point] | 23.1 µM [falling, single point]
CCOc1ccc(/C=C2\SC(=S)N(NS(=O)(=O)c3ccccc3)C2=O)cc1OC | 11.3 | – | –
COc1cc2c(cc1NC(=O)c1cncc(Br)c1)oc1ccccc12 | 98.7 | 3.66 µM [rising, partial curve] | –
CC(=O)NC(Cc1cc(C)ccc1C)C(=O)N1CCN(C(=O)Nc2ccc(C(C)=O)cc2)CC1 (centres undefined) | – | 6.51 µM [falling, single point] | 6.51 µM [falling, single point]
O=C(CSc1nc2[nH]ncc2c(=O)[nH]1)Nc1ccc(OC(F)(F)F)cc1 | -39 | 25.9 µM [falling, single point] | 9.2 µM [falling, partial curve]
Cc1cc(OCC(=O)Nc2cccnc2)c2c(C)cc(=O)oc2c1 | -1.47 | 6.51 µM [falling, partial curve, poor fit] | –
O=C(NC(=S)N(CCO)Cc1ccccc1)c1ccc(S(=O)(=O)N2CCCC2)cc1 | -36.4 | – | 2.31 µM [falling, full curve]
Cc1ccc(C)c(NC(=O)COC(=O)c2cc3ccccc3oc2=O)c1 | 1 | 0.00517 µM [falling, full curve, poor fit] | –
Cc1csc(SCC(=O)NC(C)c2ccc(F)cc2)n1 (centres undefined) | -9.84 | – | –
Cc1ccc(Nc2cc(C)nc3c(C)ccc([N+](=O)[O-])c23)cc1 | -41.4 | 10.3 µM [falling, partial curve] | 20.6 µM [falling, single point]
O=C(CCc1ccccc1)N/N=C/c1cc(Br)ccc1O | -18.6 | 29.1 µM [falling, single point] | –
Cc1cc(C)c2c(c1)/C(=N/NC(=O)c1cc(C)oc1C)CCC2 | -26.2 | – | –

SMILES | cell number change [%] | AC50 [1] | AC50 [2]
CCOc1ccc(-c2c(C(=O)N/N=C/c3sccc3C)nnn2-c2nonc2N)cc1 | 22 | – | –
CCOC(=O)Cn1nnnc1C(CC)N(Cc1cc2ccc(C)cc2[nH]c1=O)C1CCCC1 (centres undefined) | 19.1 | – | –
COc1ccc(NC(=O)c2ccc3c(c2)OCCO3)cc1OC | 7.89 | – | –
CC[N+](CC)(CC=C(C)C)CC(=O)OC | -13.4 | 29.1 µM [falling, single point] | –
Cc1cc(N)nc(SCC(=O)N2C(C)CCCC2C)n1 (centres undefined) | 9.4 | 0.0651 µM [falling, full curve, poor fit] | –
O=C(NCc1ccco1)c1ccc2c(c1)N(Cc1ccccc1)C(=O)CS2 | 82.9 | 1.16 µM [rising, full curve] | 11.6 µM [rising, partial curve]
CN1CCN(NC(=O)c2cc(-c3ccc(Br)s3)nc3ccccc23)CC1 | 21.2 | – | –
COc1cc(S(=O)(=O)n2ccc(C)n2)c(OC)cc1Cl | – | 0.58 µM [rising, single point] | 0.517 µM [rising, full curve]
O=C(C1CCCCN1S(=O)(=O)c1ccccc1)N1CCN(Cc2ccccc2)CC1 (centres undefined) | 3.38 | 0.651 µM [falling, single point] | –
Cc1ccc2cccc(S(=O)(=O)n3nc(C)cc3C)c2n1 | -104 | – | 29.1 µM [falling, single point]
C#CCOCCOCCOCCNc1nc(N2CCN(C(=O)CCCCCCCCCCNC(=O)[C@H](CCCCN)n3cc(CCO)nn3)CC2)nc(N2CCN(C(=O)CCCCCCCCCCNC(=O)[C@@H]([C@H](C)O)n3cc(C)nn3)CC2)n1 | -18 | 29.1 µM [falling, single point] | –
O=C(Nc1ccccc1N1CCOCC1)C1Cc2ccccc2CN1C(=O)c1ccco1 (centres undefined) | 9.59 | 6.51 µM [rising, single point] | 2.91 µM [rising, partial curve]
O=C(COC(=O)C1(c2ccccc2F)CCCC1)NCc1cccs1 | -14.1 | 29.1 µM [falling, single point] | –
O=S(=O)(c1ccccc1)c1nc(NCc2cccnc2)sc1Cl | -38.6 | – | 20.6 µM [falling, single point]
COc1cc2c(cc1OC)-c1cc(NC3CCCC3)nc(=O)n1CC2 | 1.89 | 0.461 µM [rising, full curve, poor fit] | –
O=S(=O)(Nc1ccc2c(c1)OCO2)c1cccc(Br)c1 | 6.66 | 3.66 µM [falling, full curve] | –
O=C(CSc1nnc2ccccn12)Nc1ccc2c(c1)OCCO2 | -13.8 | – | –
Cc1nc(N/N=C/c2cccc(F)c2)cc(N2CCOCC2)n1 | -19.9 | 29.1 µM [falling, single point] | –
O=S(=O)(Cc1nc2ccccc2s1)c1ccccc1 | 4.69 | 20.6 µM [rising, single point] | –

Individual results from above:
For AC50 [1], `Cc1ccc(Nc2cc(C)nc3c(C)ccc([N+](=O)[O-])c23)cc1` has the entry 10.3 µM [falling, partial curve]
For AC50 [2], `O=C(NCc1ccco1)c1ccc2c(c1)N(Cc1ccccc1)C(=O)CS2` has the entry 11.6 µM [rising, partial curve]

From PubChem BioAssay AID2685 (National Center for Advancing Translational Sciences (NCATS), 2010)
